Results are given in words; binding and its absence hold for the method and conditions named. In cells and extracts the contact can be indirect. Some binding calls cover weakened binding; strength is not graded here.
Molecular target: FLAG-H2ACG (Histone H2A, hCG_2039566) (human)
Test: co-IP; 293T cells co-transfected with HA-U65 and FLAG-H2ACG or FLAG-H2AC7; lysates immunoprecipitated with an anti-FLAG antibody (legend; the methods name anti-HA-tag magnetic agarose), blotted with anti-HA or anti-FLAG

Chains of the proteins cited; added tags and fusions are not shown.
UniProt Q9QJ19: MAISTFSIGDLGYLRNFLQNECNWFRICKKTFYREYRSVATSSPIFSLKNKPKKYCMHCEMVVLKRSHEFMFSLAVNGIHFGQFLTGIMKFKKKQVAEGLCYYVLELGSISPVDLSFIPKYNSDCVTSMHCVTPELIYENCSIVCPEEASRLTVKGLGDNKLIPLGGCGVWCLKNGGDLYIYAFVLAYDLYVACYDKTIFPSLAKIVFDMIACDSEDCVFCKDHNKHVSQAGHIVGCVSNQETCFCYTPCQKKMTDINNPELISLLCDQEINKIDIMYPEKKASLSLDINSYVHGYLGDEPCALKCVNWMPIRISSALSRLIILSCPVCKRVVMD

Substance: HA-U65 (HHV-6B tegument protein U65, HA-tagged) (from UniProt Q9QJ19 1-335)
- binding: binds

— PMC12548456
